These are yes or no findings as the source states them, for the method shown. In cells and extracts the contact can be indirect. A result given as binding can be weak or reduced; the word gives no strength. Tags and fused reporters may be left off the sequences shown.
Target: T1, Ubp5-GFP (S. pombe) (UniProt Q09879)
T1 sequence: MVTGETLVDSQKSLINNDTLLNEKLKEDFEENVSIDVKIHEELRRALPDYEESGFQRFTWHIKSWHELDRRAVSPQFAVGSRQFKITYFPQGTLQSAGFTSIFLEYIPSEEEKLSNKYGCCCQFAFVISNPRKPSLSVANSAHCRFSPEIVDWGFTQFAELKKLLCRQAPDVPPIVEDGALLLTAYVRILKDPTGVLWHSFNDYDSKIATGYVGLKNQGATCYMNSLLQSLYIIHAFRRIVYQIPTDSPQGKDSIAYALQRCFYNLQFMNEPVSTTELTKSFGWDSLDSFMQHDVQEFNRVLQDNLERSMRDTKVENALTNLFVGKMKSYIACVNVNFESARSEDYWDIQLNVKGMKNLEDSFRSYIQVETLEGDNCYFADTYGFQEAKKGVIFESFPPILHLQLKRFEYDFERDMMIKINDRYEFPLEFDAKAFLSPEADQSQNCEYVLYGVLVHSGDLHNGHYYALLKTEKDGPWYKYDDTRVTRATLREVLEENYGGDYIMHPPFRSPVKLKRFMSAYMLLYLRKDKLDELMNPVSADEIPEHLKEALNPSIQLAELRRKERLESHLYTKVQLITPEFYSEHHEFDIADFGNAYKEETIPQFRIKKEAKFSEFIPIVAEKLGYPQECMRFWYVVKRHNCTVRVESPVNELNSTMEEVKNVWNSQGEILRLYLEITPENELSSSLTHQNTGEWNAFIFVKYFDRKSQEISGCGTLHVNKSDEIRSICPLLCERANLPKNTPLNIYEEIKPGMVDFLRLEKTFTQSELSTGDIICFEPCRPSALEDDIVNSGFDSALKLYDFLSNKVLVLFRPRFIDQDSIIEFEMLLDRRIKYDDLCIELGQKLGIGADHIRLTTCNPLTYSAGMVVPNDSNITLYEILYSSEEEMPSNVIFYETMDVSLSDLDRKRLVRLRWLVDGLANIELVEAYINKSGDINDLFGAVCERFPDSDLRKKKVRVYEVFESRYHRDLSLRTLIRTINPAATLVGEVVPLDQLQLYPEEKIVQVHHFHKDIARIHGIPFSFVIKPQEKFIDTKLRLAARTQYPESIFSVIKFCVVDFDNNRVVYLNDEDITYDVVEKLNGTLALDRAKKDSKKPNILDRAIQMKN
Test: co-IP; native NP-40 lysates of S. pombe strains with tagged proteins; IP with anti-GFP, anti-V5 or anti-FLAG and Protein G Sepharose, or IgG Sepharose; immunoblot; wild-type background, for Ubp9 and Bun62 also bun107-null

binding: binds
Substance: Ftp105-V5 (S. pombe)

Reference: paper PMC2935449
